# Test results published in paper doi:10.1101/827725.
# Amino acid sequences for entries named in this document (tags omitted).
# UniProt P46937: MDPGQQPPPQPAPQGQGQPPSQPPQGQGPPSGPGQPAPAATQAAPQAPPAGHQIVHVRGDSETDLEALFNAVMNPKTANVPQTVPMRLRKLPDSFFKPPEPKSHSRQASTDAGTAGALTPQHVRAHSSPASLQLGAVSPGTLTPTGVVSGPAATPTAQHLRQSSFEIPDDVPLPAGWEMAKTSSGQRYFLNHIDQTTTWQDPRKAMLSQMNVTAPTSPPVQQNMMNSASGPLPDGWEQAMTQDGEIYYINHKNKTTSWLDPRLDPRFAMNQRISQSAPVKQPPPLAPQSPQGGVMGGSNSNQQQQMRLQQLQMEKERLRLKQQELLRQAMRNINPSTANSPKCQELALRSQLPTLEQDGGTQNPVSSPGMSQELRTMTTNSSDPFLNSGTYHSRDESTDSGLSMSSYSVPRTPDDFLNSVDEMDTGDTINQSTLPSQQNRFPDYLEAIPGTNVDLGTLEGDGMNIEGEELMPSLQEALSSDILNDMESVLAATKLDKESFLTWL
# No constants are given. Whether binding was seen depends on the method and setting. In cells and extracts the contact can be indirect. Some entries that bind do so weakly or less than the wild type.
# B1: plakophilin1 (protein, UniProt Q13835 1-747)
# chain: MNHSPLKTALAYECFQDQDNSTLALPSDQKMKTGTSGRQRVQEQVMMTVKRQKSKSSQSSTLSHSNRGSMYDGLADNYNYGTTSRSSYYSKFQAGNGSWGYPIYNGTLKREPDNRRFSSYSQMENWSRHYPRGSCNTTGAGSDICFMQKIKASRSEPDLYCDPRGTLRKGTLGSKGQKTTQNRYSFYSTCSGQKAIKKCPVRPPSCASKQDPVYIPPISCNKDLSFGHSRASSKICSEDIECSGLTIPKAVQYLSSQDEKYQAIGAYYIQHTCFQDESAKQQVYQLGGICKLVDLLRSPNQNVQQAAAGALRNLVFRSTTNKLETRRQNGIREAVSLLRRTGNAEIQKQLTGLLWNLSSTDELKEELIADALPVLADRVIIPFSGWCDGNSNMSREVVDPEVFFNATGCLRKRLGMRELLALVPQRATSSRVNLSSADAGRQTMRNYSGLIDSLMAYVQNCVAASRCDDKSVENCMCVLHNLSYRLDAEVPTRYRQLEYNARNAYTEKSSTGCFSNKSDKMMNNNYDCPLPEEETNPKGSGWLYHSDAIRTYLNLMGKSKKDATLEACAGALQNLTASKGLMSSGMSQLIGLKEKGLPQIARLLQSGNSDVVRSGASLLSNMSRHPLLHRVMGNQVFPEVTRLLTSHTGNTSNSEDILSSACYTVRNLMASQPQLAKQYFSSSMLNNIINLCRSSASPKAAEAARLLLSDMWSSKELQGVLRQQGFDRNMLGTLAGANSLRNFTSRF
# Legend:
# [1] = biological target: Yes-associated protein (YAP) (human (endogenous in HaCaT and primary foreskin keratinocytes)) (UniProt P46937); test: co-IP
# [2] = biological target: phospho-YAP (pYAP-S127) (human (endogenous in HaCaT and primary foreskin keratinocytes)) (UniProt P46937); test: co-IP
binder,measurement,setting,value
B1,binding,[1],binds
same,binding,[2],binds
